Measurements: the RNAGym collection of RNA variant scans (doi:10.1126/science.aae0568)
Variants at the background level are over-represented here.

B1: tRNA (parent)
chain: GUUCCGUUGGCGUAAUGGUAACGCGUCUCCCUCCUAAGGAGAAGACUGCGGGUUCGAGUCCCGUACGGAACG

Variants of: B1
Assay: yeast fitness relative to wild type (ratio to wild type); higher = fitter; tRNA-Arg(CCU), competitive growth, 37 C, YPD
Procedure, shortened: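 Start and end populations of a pooled competition were compared by 100-nucleotide paired-end sequencing of gene amplicons. The Saccharomyces cerevisiae strains carried tRNA-Arg(CCU) gene variants at the native genomic locus, synthesised with a 3% per-site mutation rate at 69 sites, and competed in YPD at 37°C for 24 hours in six parallel replicates. Darwinian fitness relative to wild type was based on the change in genotype frequencies. Genotypes required ≥ 100 starting reads, and estimates < 0.5 were set to 0.5.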

Yeast fitness, 0.607:
A21G G67U A70U

Yeast fitness, 0.608:
A57C A69C

Yeast fitness, 0.912:
C5A A14G

Yeast fitness, 0.564:
C33A C55G

Yeast fitness, 0.935:
U8C C30U

Yeast fitness, 0.562:
C31U C33U A42C

Yeast fitness, 0.864:
A20C A40G C62G

Yeast fitness, 0.938:
C31G A70U

Yeast fitness, 0.998:
C30A

Yeast fitness, ≤ 0.5:
G10A C33U A43U C49G G50C C61U C66U
G25A U35A G41A C46U G68A
A37C C55G G63A G68C
G6C U7C G48A A70U
C22G U28A C31G G51C
C24G U35C A36G A65U
A21U C31G C33G G67A
G17C G39C G63A
C4G C11U C22G A40U A43G G48C G51C A57G C61G
G12A U28A U54C A70G
C5A C30U U35A A42G
C11U G25A U53C A69C
C4U G17C G18C C22A C60A C66U
C11A U59C C66U A70C
A57U C60A G68C
U7C A37U C46G
U8A C33G A42C C61A A65C
C24A A45C G48A
C29A A43G C66A A69U
U26C U54A C66A
G9A A36C A40C A45C
U7A C11G
A20U C27A A37C
A21U C22G C33U G50A
C11A C46U U53C A70U
C4G U54A U59A G67A
U13C A21C C27U G63A A65G
G17A C49A U54A C61U U64A
U2C G12A A36U G67C
A37U A42G A45U A65U
U8G U16C A21U C22A U28G
C27A C62G A65U
U7A C31A G67A A69C
G10C C60G A70C
A15C A37C G68C
U28G A43G A45G C49U A57U
U19C C29U G38C
U13G U35G A40G A42G
C29U A37C A40G C62G G63A C66G A69G
C5U C11G C22U C30G G58C C60G
U7G C11U G12C C33U C66A
C4G U16C G41C C62U
A15C U16A A21G U26A C30U C46G A57C G68U
C11U U13G C29U C34G C46G A57G
C5U G17C C30A G50A C66G
C11A C24A G48A
C5U U16C C49G C66U
A14U C24U U64C
G6A A15G C30A
U2A C27U U32C G39C
U7A C22G C30U A37G A45U
A14C G41A G56C C62G
C5G U13G A40U
C4A C27G C29G A42C C55A
C4G C24G C27G A42C C62G
U13C A14G A45G
G12C U35G A37G A65C
C30G C46G G52C G67A G68C
A21U C24A C46U C62A
A42C U47C U54A G67C A69U
C5U A15U C31U C49U
G6C C11A C34G A69U
G39C U53C A65G C66G G68C
G9C C34A C46A G56A
C27U C46U G48A G68U
C11A A14U
A20U C29G A43U U47A G68C
U3C C29G U47A
C30U G48C G67C
C4U G39C U59G C62A
C11U G17A G48C
G6C G17A A36U C60A
G9A C11G C22U A40G G67A
A21G C22U A45U C49U U64A
C4U U26C U35G A43C U47C C55U A69C
C24U C31A C33A C34U A40U A45U
C24U C27G A42C C49A
U32A A57C G63C
U19C C22U G25C C27G A40C A65U
A15G A57U U64G A65G
G6A C22G C55G
A20G G23A C30G C55U G63A
A21C G44C G50A A57G G68C
U3C A14U A21U A37G C46U
A20G G25A A43U A69U
C4A U32C C49U C55U
G9A A21U A36G A40C A69U
A21C C24U C55A A57U
U2A C27G A36G C60U A70G
U3G A14G A43U U54A A57C
C11U U54C G56A
G12A U28C C61G
C33A G39C C66U
U19C A20C C33U U35A G58A
C11G G12A A21G
C29A C33U U54C C55G
U3A C11U U13A G17C G18C A36C
C30G A36U A70U
C4A U16G G39C C66G G68C
U2G G12A U13A G25C U28A C33A G63C U64C C66U
A15U C27U G48C G56C
U7C U8C C27U G39C
G12A C22G C29U C62A A69C
A42C A57C C61A
A15G A42G U53G
U26A A43U C55U C66U
C27G A36G A65G
G51C C55A C60A
U2A G9A U13A C24A G44U A45C
C5U U8A A42G A69C
C4G G9A C27U C46G G48A C62G G68C
U2G C22G G63C G68U
A36G A40G C55U A69C
G10C A42C C55A G56A
G9C G23A C24A C55A A70U
C33A G39C C49U U54A A70U
C34G A40U U47A G67C
A36G G39A G56A
G10A A42G G67A
C22A G41A G44C C49U
A21G A36G G38C
U3A C24A A36U A43C
U28A C33G A43C G63A A70U
A15U C34A G39C A40C U47C G56C C61G C62G G68C
C11A G17A U35G U59C A70U
C4U A15U U28C A57G
U3C U8A A43U U64A A69C
C5U G25C C29A G56A
U7G A14C C34G
C11U C22A C29G C33U A43G U53C C61A G68A
A15U U35G A37C G51C C61G
G6A A36U A37G C66G
U13C A37C G50A U53A C61U
C11G A43U A45G U47C
U2A C5A G41A A42C G50C A70G
C11U A37G U47A C60A
A21G A42G U54A
G9C U19C C46U G50A G56A
C11U A37G G58C C61U U64C
C4U G23C A36C C55G A57U G67A
C27G G38A A57U
U2G C4G A21C C22U
U8C U16C U26A G56A A65G
C31G G52U G56C
C11G G23C U35G G39C G50C

Yeast fitness, 0.647:
G18A C31U G41A

Yeast fitness, 0.573:
U19A A20C A21G C30G C55G

Yeast fitness, 0.697:
G25A A57C

Yeast fitness, 0.574:
A20C C34U G52A

Yeast fitness, 0.642:
G39U A40C C66A A69U

Yeast fitness, 0.543:
C34G C66A

Yeast fitness, 1.06:
A43U A70U

Yeast fitness, 0.533:
C5U A21G A42U U54G

Yeast fitness, 0.545:
G10C G25C C55A

Yeast fitness, 0.986:
C11U C46G

Yeast fitness, 1.03:
A42G A43U

Yeast fitness, 0.548:
C30A U54A A57C

Yeast fitness, 1.11:
U16C U26C G58A
